# Measured values from PubChem BioAssay AID687031 (Broad Institute, 2013).
# Among all 1,400 compounds or so, about 50 (4%) were called active.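 How the source made its calls: active means fitted curve reaches 30% CPE protection at or below the top valid dose, with every test run called active; inconclusive means test runs disagree, some active and some not; inactive means every test run inactive, including effects in the wrong direction.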 This is one part of the list. Results with a measured potency or affinity are listed apart.
# Experiment: antiviral rescue of DENV2-infected BHK-21 cells – cell-based, ATP luminescence, cherry-pick, dose response (AID 687031);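 further: 0% = infected DMSO wells and 100% = uninfected cell wells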
# Details: BHK-21 DENV2 CPE protection, 5 d; at 19.5 µM (top of the series) unless noted
row,Compound,CPE protection (higher = active)
1,COC(=O)[C@]12CCCCC=C1N(Cc1cccc3ccccc13)C(=O)[C@H](CC(=O)NCCC(C)C)C2,inactive: -12.2%
2,ClC(CCN1CCN(Cc2ccccc2)CC1)c1ccccc1 (stereo not given),inactive: 0.446%
3,CCCCN1C[C@H](Cc2ccccc2)[C@@H](CC(=O)Nc2ccccc2)C1=O,inactive: -14.4%
4,C[C@@H]1CN([C@@H](C)CO)C(=O)c2cc(C#CCc3ccccc3)cnc2O[C@@H]1CN(C)C(=O)C1CCOCC1,inactive: 11.9%
5,CC(=O)OCCCN(C)CC/C=C1/c2ccccc2CSc2ccccc21,inactive: -18.2%
6,COc1ccc(NC(=O)c2c(F)cccc2F)cc1S(=O)(=O)Nc1ccc(Br)cc1,inactive: 10.9%
7,COCCCNc1oc(-c2ccccc2F)nc1C#N,inactive: -5.4%
8,CC1CCN(C(=O)COC(=O)c2cc3ccccc3oc2=O)CC1,inactive: 29.4%
9,O=C(c1ccncc1)N1CCCC(N2CCN(c3cccc(C(F)(F)F)c3)CC2)C1 (stereo not given),inactive: 22.6%
10,C[C@@H]1CCCCO[C@@H](CN(C)C(=O)Cc2ccccc2)[C@H](C)CN([C@H](C)CO)C(=O)c2cc(NS(=O)(=O)c3ccc(Cl)cc3)ccc2O1,inactive: -11.9%
11,COc1ccccc1-c1noc2c1C(=O)N(Cc1cn(Cc3ccccc3)nn1)CC2,inactive: 6.91%
12,CC12CCC(=O)N1C(C(=O)Nc1ccc(S(=O)(=O)N3CCCCC3)cc1)CS2 (stereo not given),inactive: 9.93%
13,CCc1ccc2c(F)cccc2n1,inactive: -10.3%
14,COc1ccc2c3c(n(C)c2c1)[C@@H](CO)N(Cc1ccc(F)cc1)CC31CN(CC2CCOCC2)C1,inactive: 12.6%
15,O=C(NCC1CCCCC1)[C@@H]1[C@@H](CO)[C@@H]2Cn3c(cccc3=O)[C@H]1N2CCc1ccccc1,inactive: 4.12%
16,CCOC(=O)C1=C(C)NC(=O)C(C#N)C1c1ccncc1 (stereo not given),inactive: -19.2%
17,CN1[C@@H]2Cn3c(ccc(C4=CCCC4)c3=O)[C@H]1[C@@H](C(=O)N1CCCCC1)[C@@H]2CO,inactive: 21.2%
18,Clc1ccc2nc(C3CCCCC3)c(CC3CCCCC3)n2c1,inactive: -12.1%
19,CC1=CC(C)(C)Nc2ccccc21,inactive: 3.47%
20,COc1ccc(C2=Nn3c(nnc3-c3ccccc3OC)SC2)cc1OCC1CC1,inactive: -3.44%
21,O=C(Nc1ccc(Cc2ccncc2)cc1)c1cccs1,inactive: 35.7%
22,O=C1c2ccccc2[C@@H]2C[C@@H](O)[C@H](Nc3cccc4ccccc34)CCN12,inactive: -10.2%
23,CCC(C)[C@H]1CNCCN1CCc1cc(C(F)(F)F)cc(C(F)(F)F)c1 (stereo not given in full),inactive: 25.1%
24,Cn1cc([C@]2(O)C(=O)Nc3ccccc32)c2ccccc21,inactive: -11.7%
25,NC[C@H](Cc1ccccc1)NCCCCC1CCCCC1,inactive: -18.6%
26,COc1ccc(C(=O)N2CCCCC2c2cc(C(=O)NCc3cccnc3)no2)cc1 (stereo not given),inactive: -19.2%
27,CN1CCN(C(=O)c2cc3sc4ccccc4c3s2)CC1,inactive: 0.745%

row,Compound,CPE protection (higher = active)
1,O=C1CCC(C(=O)OCC(=O)Nc2ccc(SC(F)F)cc2)=NN1,inactive: 24%
2,CCc1cccc(-n2c(C)cc(O)cc2=O)c1,inactive: -5.28%
3,CCCC[C@@H]1CNC(=O)C(=O)N1CCCCC1CCCCC1,inactive: 1.63%
4,COc1ccc(S(=O)(=O)N2CCCCN3[C@H](CO)[C@H](c4ccc(C5=CCCC5)cc4)[C@@H]3C2)cc1,inactive: -14.4%
5,CCOc1cc(C(=O)N(C)CC(=O)Nc2cccc3ccccc23)ccc1OC,inactive: 5.02%
6,Cc1cccc(Oc2nccc(C(F)(F)F)c2C(=O)Nc2ccc(F)cc2F)c1,inactive: -3.58%
7,c1ccc(-c2ccc(OCCN3CCOCC3)cc2)cc1,inactive: 6.91%
8,C[C@H](NC(=O)[C@@H]1CCCN1C(=O)OC(C)(C)C)c1ccccc1,inactive: 10.7%
9,CCC(=O)N1CC[C@@H]2[C@H](CO)Nc3ccc(-c4cccc(C#N)c4)cc3[C@@H]21,inactive: 22.9%
10,C[C@H](CO)N1C[C@H](C)[C@H](CN(C)C(=O)CCCN(C)C)OCCCC[C@H](C)Oc2ccc(NC(=O)Cc3ccccc3)cc2C1=O,inactive: -11.1%
11,Cc1ccccc1OCCOC(=O)c1cc(S(=O)(=O)N2CCOCC2)ccc1C,inactive: 19.7%
12,COc1ccc(Br)cc1CN1CCC(N2CCCC2)CC1,inactive: 9.97%
13,N#Cc1cccc(-c2ccc(C3[C@@H]4CN(C(=O)c5cccnc5)C[C@H]3N4)cc2)c1 (stereo not given in full),inactive: -5.06%
14,COc1ccc(NC(=O)Nc2cccc3c2O[C@H](CN(C)C(=O)NC2CCCCC2)[C@H](C)CN([C@@H](C)CO)C3=O)cc1,inactive: 0.224%
15,O=C(O)[C@H]1[C@H](CO)[C@H]2Cn3c(ccc(/C=C/c4ccccc4)c3=O)[C@H]2N1C(=O)c1cnccn1,inactive: 8.22%
16,CCN1[C@H](C(=O)NCCCN(C)C)[C@@H](CO)[C@@H]2Cn3c(ccc(-c4cccc(F)c4)c3=O)[C@@H]21,inactive: 12%
17,CCCCN1C[C@H](Cc2ccccc2)[C@@H](CC(=O)NCc2ccc(OC)cc2)C1=O,inactive: 2.77%
18,C[C@@H]1CN([C@H](C)CO)C(=O)Cc2cc(NC(=O)CCCCCC(=O)Nc3ccccc3N)ccc2O[C@@H]1CN(C)Cc1ccc(C(F)(F)F)cc1,inactive: -7.66% [at 16 µM]
19,C[C@@H]1CCCCO[C@@H](CN(C)Cc2ccc(C(=O)O)cc2)[C@H](C)CN([C@H](C)CO)C(=O)c2cc(NC(=O)c3ccccc3)ccc2O1,inactive: -2.03%
20,CO[C@@H]1CN(C)C(=O)c2ccc(NC(=O)CC(F)(F)F)cc2OC[C@H](C)N(C(C)=O)C[C@@H]1C,inactive: 9.73%
21,Cc1ccc(S(=O)(=O)N2CCCCC2)cc1NC(=O)CCOc1ccccc1,inactive: -13.6%
22,CCC(=O)N1C[C@@H](C)[C@@H](OC)CN(C)C(=O)c2ccc(NC(=O)Nc3ccc(Cl)cc3)cc2OC[C@H]1C,inactive: 0.873%
23,O=S(=O)(NCc1ccc(F)cc1)c1ccccc1Br,inactive: -9.93%
24,C[C@@H]1CCCCO[C@@H](CN(C)C(=O)C2CCCCC2)[C@H](C)CN([C@H](C)CO)C(=O)c2cc(NC(=O)c3ccncc3)ccc2O1,inactive: 12.6%
25,COCCn1nnnc1C(c1cc2cc(C)ccc2[nH]c1=O)N1CCN(C2CCCCC2)CC1 (stereo not given),inactive: 9.44%
26,N#Cc1cccnc1N1CCN(C(=O)c2ccccc2)CC1,inactive: -12.5%
27,CCCNC(=O)C(Cc1ccc(I)cc1)NC(=O)c1ccc(C#N)cc1 (stereo not given),inactive: -14.2%

# Molecules above that contain a Cl atom, in the order listed:
row,Compound,CPE protection (higher = active)
2,ClC(CCN1CCN(Cc2ccccc2)CC1)c1ccccc1 (stereo not given),inactive: 0.446%
10,C[C@@H]1CCCCO[C@@H](CN(C)C(=O)Cc2ccccc2)[C@H](C)CN([C@H](C)CO)C(=O)c2cc(NS(=O)(=O)c3ccc(Cl)cc3)ccc2O1,inactive: -11.9%
18,Clc1ccc2nc(C3CCCCC3)c(CC3CCCCC3)n2c1,inactive: -12.1%
22,CCC(=O)N1C[C@@H](C)[C@@H](OC)CN(C)C(=O)c2ccc(NC(=O)Nc3ccc(Cl)cc3)cc2OC[C@H]1C,inactive: 0.873%

# (listing goes on)

row,Compound,CPE protection (higher = active)
1,Cc1ccc(S(=O)(=O)N2CCN(C(=O)C(O)c3ccccc3)CC2)cc1 (stereo not given),inactive: 13%
2,N#C[C@H]1[C@@H](c2ccc(C3=CCCCC3)cc2)[C@@H](CO)N1S(=O)(=O)c1cccc(F)c1,inactive: 25.4%
3,COCCN(C(=O)COC(=O)CC(C)c1ccccc1)c1c(N)n(Cc2ccccc2)c(=O)[nH]c1=O (stereo not given),inactive: -5.14%
4,CCCCn1c(N)c(N(CC)C(=O)c2cc(C)cc(C)c2)c(=O)[nH]c1=O,inactive: -24.1%
5,CC1(C(=O)NS(=O)(=O)Cc2cccc(Cl)c2)CCN1C(=O)c1ccc(C2CCCCC2)cc1 (stereo not given),inactive: 14.8%
6,O=S(=O)(Nc1nc(SCc2ccc(Cl)cc2)n[nH]1)c1ccc(F)cc1,inactive: -24.2%
7,Cc1ccc(N(C)C(=O)N2CCN(S(=O)(=O)c3ccc(C)cc3)CC2)cc1,inactive: 1.56%
8,COc1ccc(NC(=O)Nc2ccc3c(c2)C(=O)N([C@@H](C)CO)C[C@H](C)[C@H](CN(C)Cc2ccc(C(=O)O)cc2)OCCCC[C@H](C)O3)cc1,inactive: -7.85%
9,COc1ccc(-c2ccc3c(c2)[C@H]2[C@H](CCN2C(=O)CN2CCOCC2)[C@@H](CO)N3)cc1,inactive: 21.7%
10,CSc1cccc(NC(=O)CC2Oc3ccccc3NC2=O)c1 (stereo not given),inactive: -0.118%
11,Cc1ccc(C(=O)OCC(=O)Nc2ccccc2C(F)(F)F)cc1S(=O)(=O)N1CCCCC1,inactive: -2.24%
12,O=C(C1CCOCC1)N1CC[C@@H]2[C@H]1c1cc(-c3cccc(F)c3)ccc1N[C@@H]2CO,inactive: -4.08%
13,CC(C)NC(=O)N1C[C@H]2[C@@H](c3ccccc31)[C@@H](CO)N2C(=O)c1ccccn1,inactive: 6.1%
14,O=C(Nc1cccc(-n2cnnn2)c1)C1CCCN(C(=O)Cc2cccc(Cl)c2)C1 (stereo not given),inactive: 22.5%
15,Cc1cccc(C)c1OCC(=O)NNC(=O)CCCn1c(=O)oc2ccccc21,inactive: -33.7%
16,CCC(C(=O)Nc1c(C)cccc1C)n1c(-c2ccc(=O)[nH]c2)nc2ccccc21 (stereo not given),inactive: 6.71%
17,O=C(O)CCCCCCCCc1cn(CCc2c[nH]c3ccccc23)nn1,inactive: 5.69%
18,Nc1sc(-c2ccccc2)cc1C(=O)NCCN1CCOCC1,inactive: 9.75%
19,CN(Cc1nccs1)C(=O)c1ccc(OC2CCN(Cc3ccccn3)CC2)cc1,inactive: 7.95%
20,O=C(CN1CCN(c2cccc(C(F)(F)F)c2)CC1)N(C1CCCC1)C1CCS(=O)(=O)C1 (stereo not given),inactive: -19.2%
21,Cc1nc2ccccc2n1C(c1cccnc1)c1nc2ccccc2[nH]1 (stereo not given),inactive: 4.03%
22,COc1ccc(CCN2CC(C(=O)NCCc3ncccc3C)CCC2=O)cc1 (stereo not given),inactive: 11.2%
23,Cc1cccc(C(=O)NC2CCN(CC(=O)Nc3cccc(Cl)c3)CC2)c1,inactive: 11.9%
24,CN(C)c1cccc(C(=O)Nc2cc(C(F)(F)F)ccc2-n2cnc3ccccc32)c1,inactive: -10.5%
25,Cc1ccc(C2=NOC(C)(c3nnc(-c4ccncc4)o3)C2)cc1 (stereo not given),inactive: 0.835%
26,COC(=O)c1ccc(NC(=O)C2CC3CCC2C3)cc1 (stereo not given),inactive: -5.25%

# Sorted by molecular weight (ascending): some entries from above.
row,Compound,CPE protection (higher = active)
1,O=C1CCC(C(=O)OCC(=O)Nc2ccc(SC(F)F)cc2)=NN1,inactive: 24%
1,Cc1ccc(S(=O)(=O)N2CCN(C(=O)C(O)c3ccccc3)CC2)cc1 (stereo not given),inactive: 13%
17,CN1[C@@H]2Cn3c(ccc(C4=CCCC4)c3=O)[C@H]1[C@@H](C(=O)N1CCCCC1)[C@@H]2CO,inactive: 21.2%
